PubChem BioAssay AID493246, Drosophila RNAi Screening Center – 2011
In all, the deposit lists about 21,000 reagents; this is an unselected part of those that have a named target and a result. Of all reagents, 429 (2%) got an active call. 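Values are raw and not normalised between plates; calls rest on per-plate z-scores that were not deposited.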 Names joined by + are all predicted targets of the reagent. The record does not give: the amount of reagent, the time to read-out.

Assay: 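Identify essential fly genes by loss of cell viability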 (primary screen)
Cell system: Drosophila Kc and S2R+ cells
Knock-down reagent: long dsRNA against Drosophila genes
Measurement: 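Raw, unnormalised count of remaining cells in each well; per-plate z-scores of cell number underlie the calls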
Direction: Kc cell number and S2R+ cell number: higher = more cells remaining
Rule for the call: 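Active when the per-plate z-score of cell number is 3 or more in the direction of fewer cells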

| gene knocked down | amplicon | Kc cell number, rep 1 | Kc cell number, rep 2 | S2R+ cell number, rep 1 | S2R+ cell number, rep 2 | Call |
| --- | --- | --- | --- | --- | --- | --- |
| Ogdh (Oxoglutarate dehydrogenase) | DRSC09854 | 1.69e6 | 1.76e6 | 1.49e6 | 1.50e6 | inactive |
| Ogdh (Oxoglutarate dehydrogenase) | DRSC09855 | 1.34e6 | 1.53e6 | 1.12e6 | 1.25e6 | inactive |
| CG12768 | DRSC11680 | 1.47e6 | 1.77e6 | 1.09e6 | 1.24e6 | inactive |
| CG15614 | DRSC06567 | 1.49e6 | 1.54e6 | 1.08e6 | 1.27e6 | inactive |
| Snmp1 (Sensory neuron membrane protein 1) | DRSC16168 | 1.24e6 | 1.18e6 | 8.98e5 | 1.01e6 | inactive |
| woc (without children) | DRSC15928 | 5.54e5 | – | 7.67e5 | – | inactive |
| Tig (Tiggrin) | DRSC03456 | 1.37e6 | 1.23e6 | 9.17e5 | 1.04e6 | inactive |
| CG34326 (retired record) | DRSC19165 | 1.38e6 | 1.67e6 | 1.09e6 | 1.24e6 | inactive |
| Prx2 (Peroxiredoxin 2) | DRSC20256 | 1.57e6 | 1.53e6 | 1.09e6 | 1.18e6 | inactive |
| snoRNA:Me28S-A982b + Uhg4 + snoRNA:Me28S-G3255a + 1 more | DRSC05143 | 1.43e6 | 1.55e6 | 9.44e5 | 1.04e6 | inactive |
| Polr3B (RNA polymerase III subunit B) | DRSC07536 | 1.26e6 | 1.40e6 | 1.09e6 | 1.16e6 | inactive |
| Art3 (Arginine methyltransferase 3) | DRSC16065 | 1.50e6 | 1.56e6 | 1.34e6 | 1.40e6 | inactive |
| CG5727 | DRSC02882 | 1.44e6 | 1.43e6 | 1.17e6 | 1.28e6 | inactive |
| Dhdds (Dehydrodolichyl diphosphate synthase subunit) | DRSC17756 | 1.47e6 | 1.51e6 | 1.03e6 | 1.14e6 | inactive |
| CG7806 | DRSC03071 | 1.38e6 | 1.39e6 | 7.69e5 | 9.58e5 | inactive |
| ics (icarus) | DRSC01878 | 1.36e6 | 1.37e6 | 1.37e6 | 1.28e6 | inactive |
| CG11779 + CG5835 | DRSC15886 | 1.37e6 | 1.41e6 | 1.01e6 | 1.13e6 | inactive |
| CG31098 | DRSC14259 | 1.59e6 | 1.57e6 | 1.02e6 | 1.14e6 | inactive |
| CG1792 | DRSC15290 | 1.47e6 | 1.49e6 | 1.01e6 | 1.12e6 | inactive |
| Hsp60C (Heat shock protein 60C) | DRSC03036 | 1.66e6 | 1.68e6 | 1.22e6 | 1.33e6 | inactive |
| Galphai (G protein alpha subunit i) | DRSC11168 | 1.27e6 | 1.35e6 | 1.09e6 | 1.07e6 | inactive |
| grnd (grindelwald) | DRSC02020 | 1.64e6 | 1.67e6 | 1.40e6 | 1.55e6 | inactive |
| CG9962 | DRSC00739 | 1.51e6 | 1.50e6 | 1.09e6 | 1.24e6 | inactive |
| Sf3b1 (Splicing factor 3b subunit 1) | DRSC00535 | 1.02e6 | 1.04e6 | 4.86e5 | 6.22e5 | active |
| fun (retired record) | DRSC12300 | 1.44e6 | 1.47e6 | 1.17e6 | 1.22e6 | inactive |
| CG5071 | DRSC15710 | 1.63e6 | 1.57e6 | 1.02e6 | 1.10e6 | inactive |
| Paf-AHalpha (Platelet-activating factor acetylhydrolase alpha) | DRSC20267 | 1.41e6 | 1.47e6 | 1.10e6 | 1.13e6 | inactive |
| NC2alpha (Negative Cofactor 2alpha) | DRSC04059 | 1.27e6 | 1.39e6 | 1.04e6 | 1.02e6 | inactive |
| CG10553 | DRSC14254 | 1.78e6 | 1.86e6 | 1.03e6 | 1.10e6 | inactive |
| ND-ASHI (NADH dehydrogenase (ubiquinone) ASHI subunit) | DRSC18291 | 1.45e6 | 1.40e6 | 9.64e5 | 1.09e6 | inactive |
| ppk24 (pickpocket 24) | DRSC15093 | 1.48e6 | 1.56e6 | 1.07e6 | 1.21e6 | inactive |
| ea (easter) | DRSC16939 | 1.24e6 | 1.32e6 | 1.16e6 | 1.26e6 | inactive |
| spoon (spoonbill) | DRSC18299 | 5.30e5 | – | 8.97e5 | – | inactive |
| RpL15 (Ribosomal protein L15) | DRSC20963 | 1.01e6 | 1.10e6 | 6.57e5 | 7.94e5 | active |
| Drsl6 (Drosomycin-like 6) | DRSC08161 | 1.36e6 | 1.33e6 | 1.05e6 | 1.20e6 | inactive |
| Osi21 (Osiris 21) | DRSC02408 | 1.67e6 | 1.74e6 | 1.35e6 | 1.54e6 | inactive |
| HemK1 (HemK methyltransferase 1) | DRSC03253 | 1.25e6 | 1.35e6 | 6.49e5 | 7.85e5 | inactive |
| MED15 (Mediator complex subunit 15) | DRSC00267 | 1.17e6 | 1.25e6 | 6.68e5 | 8.44e5 | inactive |
| Cog2 (Component of oligomeric golgi complex 2) | DRSC16987 | 1.18e6 | 1.25e6 | 1.09e6 | 1.15e6 | inactive |
| Iswi (Imitation SWI) | DRSC07446 | 1.69e6 | 1.71e6 | 1.28e6 | 1.52e6 | inactive |
| CG8516 | DRSC16437 | 1.71e6 | 1.70e6 | 1.39e6 | 1.50e6 | inactive |
| Dab (Disabled) | DRSC11140 | 1.41e6 | 1.56e6 | 1.05e6 | 1.11e6 | inactive |
| BaraA1 + BaraA2 | DRSC05417 | 1.47e6 | 1.43e6 | 9.74e5 | 1.12e6 | inactive |
| Samuel | DRSC02156 | 1.42e6 | 1.62e6 | 1.07e6 | 1.17e6 | inactive |
| Samuel | DRSC02401 | 1.34e6 | 1.59e6 | 7.40e5 | 8.41e5 | active |
| Samuel | DRSC02402 | 1.73e6 | 1.74e6 | 1.20e6 | 1.31e6 | inactive |
| SNCF (SoxNeuro Co-Factor) | DRSC10115 | 1.29e6 | 1.32e6 | 1.25e6 | 1.38e6 | inactive |
| dre4 | DRSC08714 | 1.92e6 | 1.89e6 | 7.85e5 | 1.21e6 | inactive |
| RN-tre (Related to the N terminus of tre oncogene) | DRSC07521 | 1.61e6 | 1.62e6 | 1.31e6 | 1.50e6 | inactive |
| Trax (Translin associated factor X) | DRSC15709 | 1.58e6 | 1.68e6 | 1.23e6 | 1.32e6 | inactive |
| beat-Vb (beaten path Vb) | DRSC12940 | 1.78e6 | 1.88e6 | 1.14e6 | 1.32e6 | inactive |
| beat-Vb (beaten path Vb) | DRSC14845 | 1.85e6 | 1.85e6 | 1.21e6 | 1.42e6 | inactive |
| CG34334 | DRSC20643 | 1.45e6 | 1.48e6 | 1.12e6 | 1.25e6 | inactive |
| Coq2 (Coenzyme Q biosynthesis protein 2) | DRSC16516 | 1.58e6 | 1.73e6 | 1.23e6 | 1.32e6 | inactive |
| Gr39a (Gustatory receptor 39a) | DRSC01841 | 5.50e5 | – | 8.82e5 | – | inactive |
| Gr39a (Gustatory receptor 39a) | DRSC01842 | 5.59e5 | – | 8.76e5 | – | inactive |
| Rae1 | DRSC04577 | 7.91e5 | 1.08e6 | 8.59e5 | 7.44e5 | inactive |
| Peritrophin-15a | DRSC02636 | 1.64e6 | 1.68e6 | 1.27e6 | 1.47e6 | inactive |
| CG10126 | DRSC14191 | 1.60e6 | 1.59e6 | 1.33e6 | 1.42e6 | inactive |
